Measurements as given in article PMC3330820.
These are yes or no findings as the source states them, for the method shown. In cells and extracts the contact can be indirect. Some entries that bind do so weakly or less than the wild type. For part of these data: Where a sequence is shown, tags or fusion partners need not be part of it. One block for each molecule: values may come before it.

Sequences of proteins named here, by UniProt entry; tags and fusion partners are left off. A change or cut given only in a name is not applied to a line headed by its entry.
UniProt P98170: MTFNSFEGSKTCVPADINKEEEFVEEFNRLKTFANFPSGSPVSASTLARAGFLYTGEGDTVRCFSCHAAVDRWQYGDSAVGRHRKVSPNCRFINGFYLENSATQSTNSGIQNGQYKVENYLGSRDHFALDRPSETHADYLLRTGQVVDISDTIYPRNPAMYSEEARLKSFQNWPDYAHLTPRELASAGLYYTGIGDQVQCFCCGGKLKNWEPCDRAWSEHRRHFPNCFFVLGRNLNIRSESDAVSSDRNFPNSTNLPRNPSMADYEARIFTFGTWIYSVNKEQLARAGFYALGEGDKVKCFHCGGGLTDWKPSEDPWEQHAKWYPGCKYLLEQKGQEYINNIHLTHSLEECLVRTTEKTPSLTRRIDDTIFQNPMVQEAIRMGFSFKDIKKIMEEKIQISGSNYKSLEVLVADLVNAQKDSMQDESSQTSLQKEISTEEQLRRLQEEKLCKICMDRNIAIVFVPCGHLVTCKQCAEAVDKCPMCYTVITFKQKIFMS

Experiments:
[1] = target: T1, GFP-RhoGDI (green fluorescent protein-tagged RhoGDI) (UniProt P52565); test: co-IP; XIAP-/- HCT116 cells expressing GFP-RhoGDI with HA-XIAP constructs; immunoprecipitated with anti-GFP antibody-conjugated agarose beads, blotted for XIAP / HA
T1 sequence: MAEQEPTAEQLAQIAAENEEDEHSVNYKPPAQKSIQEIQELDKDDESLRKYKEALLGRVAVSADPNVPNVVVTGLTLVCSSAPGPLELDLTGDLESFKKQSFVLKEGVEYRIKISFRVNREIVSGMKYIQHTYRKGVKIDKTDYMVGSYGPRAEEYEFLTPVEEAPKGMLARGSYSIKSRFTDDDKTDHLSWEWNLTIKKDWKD

[2] = target: X-linked inhibitor of apoptosis protein (XIAP), endogenous (human (endogenous in HCT116)) (UniProt P98170); test: co-IP; lysates of WT and XIAP-/- HCT116 cells immunoprecipitated with anti-XIAP (mouse) antibody or normal mouse IgG, blotted with anti-RhoGDI (rabbit); lysis buffer 1% Triton X-100, 150 mM NaCl, 10 mM Tris pH 7.4, 0.5% NP-40; 4°C

binding [1]: binds
Molecule: HA-XIAP H467A (from UniProt P98170 1-497)

binding [1]: binds
Molecule: HA-XIAP (full-length, HA-tagged XIAP) (from UniProt P98170 1-497)

binding [2]: binds
B1: RhoGDI, endogenous (protein, UniProt P52565 1-204)
chain: T1 sequence
